Data reported in patent US20180194862A1.
Changes are numbered by the printed parent chain. These are yes or no findings as the source states them, for the method shown. Some binding calls cover weakened binding; strength is not graded here.

By UniProt entry, the sequences of proteins in these tests, tags left out. Where a name states a change or a piece, a line headed by the entry shows the natural chain unless it says otherwise. Chains listed by the source or under a name are the forms on record and can include a tag or linker. Residues count along the entry.
cynomolgus CD40 on cells (HEK293 stable transfectants, cynomolgus PBMC B cells) (G7PG38, form named): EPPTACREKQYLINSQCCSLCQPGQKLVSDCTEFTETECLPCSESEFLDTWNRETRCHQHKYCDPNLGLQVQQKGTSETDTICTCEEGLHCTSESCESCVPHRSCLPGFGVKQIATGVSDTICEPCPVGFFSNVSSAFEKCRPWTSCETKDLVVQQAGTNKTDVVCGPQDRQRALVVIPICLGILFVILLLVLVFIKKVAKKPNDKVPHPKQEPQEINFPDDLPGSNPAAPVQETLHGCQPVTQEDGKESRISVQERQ
UniProt A9YYE7, residues 24-186: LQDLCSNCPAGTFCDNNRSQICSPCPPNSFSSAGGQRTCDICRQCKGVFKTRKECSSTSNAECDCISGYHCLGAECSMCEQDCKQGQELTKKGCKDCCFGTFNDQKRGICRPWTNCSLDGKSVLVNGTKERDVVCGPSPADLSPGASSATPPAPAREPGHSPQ

B1: huAb9-6 (antibody, human IgG1, V domains shown)
VH: EVQLQESGPGLVKPSETLSLTCTVSGYSISSNYYWNWIRQPPGKGLEWMGYIRYDGSNNYNPSLKSRVTISRDTSKNQFSLKLSSVTAADTAVYYCARLDYWGQGTTVTVSS
VL: DAVMTQTPLSLSVTPGQPASISCRSSQSLENTNGNTFLNWYLQKPGQSPQLLIYRVSNRFSGVPDRFSGSGSGTDFTLKISRVEAEDVGVYYCLQVTHVPFTFGQGTKLEIK
B2: huAb6-1 (antibody, human IgG1, V domains shown)
VH: EVQLVQSGAEVKKPGSSVKVSCKASGYTFTSYWMHWVRQAPGQGLEWIGNIDPSNGETHYNQKFKDRATLTVDKSTSTAYMELSSLRSEDTAVYYCARERIYYSGSTYDGYFDVWGQGTTVTVSS
VL: DIQLTQSPSFLSASVGDRVTITCSASSSLSYMHWYQQKPGKSPKRWIYDTSKLASGVPSRFSGSGSGTEYTLTISSLQPEDFATYYCQQWSSNPWTFGGGTKVEIK
B3: huAb6-2 (antibody, human IgG1, V domains shown)
VH: B2 VH with A68V, L70I
VL: B2 VL
B4: huAb6-3 (antibody, human IgG1, V domains shown)
VH: B2 VH with N61A, K65Q, D66G, A68V, L70I
VL: B2 VL
B5: huAb8-2 (antibody, human IgG1, V domains shown)
VH: EVQLVQSGAEVKKPGSSVKVSCKASGYTFTDYYINWVRQAPGQGLEWIGWIFPGSGSVYSNEQFKGRATLTVDRSTSTAYMELSSLRSEDTAVYFCASSLGKFAYWGQGTLVTVSS
VL: DIQMTQSPSSLSASVGDRVTITCKASQSVVTAVAWYQQKPGKSPKLLIYSASNRYTGVPSRFSGSGSGTDFTLTISSLQPEDFATYFCQQYSSYPYTFGGGTKVEIK
B6: huAb8-3 (antibody, human IgG1, V domains shown)
VH: B5 VH with S60C, A68V, L70I, R74K, F95Y
VL: B5 VL
B7: huAb9-1 (antibody, human IgG1, V domains shown)
VH: B1 VH with S30T, S66N, V68I
VL: B1 VL with Y41F, Y92F
B8: huAb9-2 (antibody, human IgG1, V domains shown)
VH: B1 VH with S30T, S66N
VL: B1 VL with Y41F, Y92F
B9: huAb9-3 (antibody, human IgG1, V domains shown)
VH: B1 VH
VL: B1 VL with Y41F, Y92F
B10: huAb9-4 (antibody, human IgG1, V domains shown)
VH: B1 VH with S30T, S66N, V68I
VL: B1 VL
B11: TABBY106-rIgG1 (antibody, V domains shown)
VH: QVQLQQSGAELAKPGTSVKLSCKASGYTFTSYYIYWVKQRPGQGLEWIGNIWPGNGGTFYGEKFMGKATFTADTSSSTAYMLLGSLTPEDSAYYFCARRPDYSGDDYFDYWGQGVLVTVSS
VL: QVVLTQPKSVSTSLKSTVKLSCKLNSGNIGSYYVHWYQQHAGRSPTTMIYRDDKRPDGVPDRFSGSIDSSSNSAFLTINNVQTEDDAIYFCHSYDSTITPVFGGGTKLTVL
B12: TABBY107-rIgG1 (antibody, V domains shown)
VH: QVKLVQSGAALVKPGASVKMSCKASDYTFNDYWVSWVKQRHGESLEWIGEIYPNSGATNFNGKFRGKATLTVDNPTSTAYMELSRLTSEDSAIYYCTREYTRDWFAYWGQGTLVTVSS
VL: DVVLTQTPSILSATIGQSVSISCRSSQSLLDSDGNTYLYWFLQRPGQSPQRLIYLVSNLGSGVPNRFSGSGSGTDFTLKISGVEAEDLGIYYCMQPTHAPYTFGAGTKLELK

target: cynomolgus CD40 on cells (HEK293 stable transfectants, cynomolgus PBMC B cells) (cynomolgus) (UniProt G7PG38); test: FACS, PBMC, CF640R-labelled Ab

binding, binds:
B1
B2
B3
B4
B5
B6
B7
B8
B9
B10

target: cynomolgus 4-1BB (cynomolgus) (UniProt A9YYE7); test: SPR

binding, binds:
B11
B12

target: cynomolgus CD40 on cells (HEK293 stable transfectants, cynomolgus PBMC B cells) (cynomolgus) (UniProt G7PG38); test: FACS, HEK293 transfectants

binding, binds:
B1
B2
B3
B4
B5
B6
B7
B8
B9
B10
